Data published in US20240002505A1.
No constants are given. Whether binding was seen depends on the method and setting. Some binding calls cover weakened binding; strength is not graded here.

Protein sequences, listed by entry. Tags and fused reporters are not part of them. Residues count along the entry.
UniProt P06127, residues 25-372: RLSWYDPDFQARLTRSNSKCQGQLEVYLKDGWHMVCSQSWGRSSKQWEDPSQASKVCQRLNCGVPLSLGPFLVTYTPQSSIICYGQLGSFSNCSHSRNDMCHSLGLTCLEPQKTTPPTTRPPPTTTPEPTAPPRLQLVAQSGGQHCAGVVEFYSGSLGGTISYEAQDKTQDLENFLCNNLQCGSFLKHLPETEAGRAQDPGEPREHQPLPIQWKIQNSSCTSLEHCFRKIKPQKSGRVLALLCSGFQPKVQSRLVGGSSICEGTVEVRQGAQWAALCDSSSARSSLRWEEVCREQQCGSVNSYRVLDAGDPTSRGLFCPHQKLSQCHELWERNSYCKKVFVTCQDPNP

Target: CD5 antigen (Octet affinity determination, Example 8) (UniProt P06127)
Assay: BLI (Octet)

B1: Clone 10 anti-CD5 IgG (antibody, V domains shown)
VH: EVQLLESGGGLVKPGGSLRLSCAASGFTFNNYTMNWVRQAPGKGLEWVSSISSSSSYIYYADSVKGRFTISRDNAKNSLFLQMNSLRGEDTAVYYCARYFSGSAGDYWGQGTLVTVSS
VL: QSVVTQPPSVSGAPGQRVTISCTGSSSNIGAGYDVHWYQQLPGTAPKLLIYGNINRPSGVPDRFSGSKSGTSASLAITGLQAEDEADYYCGTWDNSLSAHYVFGTGTKVTVLG
- binding: binds

B2: Clone 32 anti-CD5 IgG (antibody, V domains shown)
VH: QVQLVESGGGLVKPGGSLRLSCAASGFTFSSYSMNWVRQAPGKGLEWVSSISSSSSYIYYADSVKGRFTISRDNAKNSLYLQMNSLRAEDTAVYYCARGNPWYGVDYWGQGTLVTVSS
VL: QSVLTQPPSVSAAPGQKVTISCSGSNSNIGNNYVSWYQQLPGTAPKRLIYDNNKRPSGIPDRFSGSKSGTSATLGITGLQTGDEADYYCGIWDSSLDAYVFGTGTKVTVLG
- binding: binds

B3: Clone 35 anti-CD5 IgG (antibody, V domains shown)
VH: QVQLVESGGGLVQPGGSLRLSCAASGFTFSSYAMSWVRQTPGKGLEWVSTITDSGDITYYTASVQGRFTISRDNSKNTLYLQMNSLRAEDTAVYYCARMSSHWYFSADYWGQGTLVTVSS
VL: QSVLTQPPSVSAAPGQKVTISCSGSSSNIGNNYVSWYQQLPGTAPKLLIYDNNKRPSGIPDRFSGSKSGTSATLGITGLQTGDEADYYCGTWDSSLSAVVFGGGTKLTVLG
- binding: binds
